# Experimental data published in publication PMC8989874.
# What was measured:
# [1] = target: T1, RhopH2-HA (P. falciparum) (UniProt C0H571); experiment: co-IP; RhopH2-HA immunoprecipitated with anti-HA 3F10 from saponin pellets of free merozoites and early trophozoites lysed in 20 mM HEPES, 150 mM NaCl, 2% DDM, pH 7.2; eluted with 0.5% SDS at 95 °C; immunoblot for RhopH3 and Clag3
# T1 sequence: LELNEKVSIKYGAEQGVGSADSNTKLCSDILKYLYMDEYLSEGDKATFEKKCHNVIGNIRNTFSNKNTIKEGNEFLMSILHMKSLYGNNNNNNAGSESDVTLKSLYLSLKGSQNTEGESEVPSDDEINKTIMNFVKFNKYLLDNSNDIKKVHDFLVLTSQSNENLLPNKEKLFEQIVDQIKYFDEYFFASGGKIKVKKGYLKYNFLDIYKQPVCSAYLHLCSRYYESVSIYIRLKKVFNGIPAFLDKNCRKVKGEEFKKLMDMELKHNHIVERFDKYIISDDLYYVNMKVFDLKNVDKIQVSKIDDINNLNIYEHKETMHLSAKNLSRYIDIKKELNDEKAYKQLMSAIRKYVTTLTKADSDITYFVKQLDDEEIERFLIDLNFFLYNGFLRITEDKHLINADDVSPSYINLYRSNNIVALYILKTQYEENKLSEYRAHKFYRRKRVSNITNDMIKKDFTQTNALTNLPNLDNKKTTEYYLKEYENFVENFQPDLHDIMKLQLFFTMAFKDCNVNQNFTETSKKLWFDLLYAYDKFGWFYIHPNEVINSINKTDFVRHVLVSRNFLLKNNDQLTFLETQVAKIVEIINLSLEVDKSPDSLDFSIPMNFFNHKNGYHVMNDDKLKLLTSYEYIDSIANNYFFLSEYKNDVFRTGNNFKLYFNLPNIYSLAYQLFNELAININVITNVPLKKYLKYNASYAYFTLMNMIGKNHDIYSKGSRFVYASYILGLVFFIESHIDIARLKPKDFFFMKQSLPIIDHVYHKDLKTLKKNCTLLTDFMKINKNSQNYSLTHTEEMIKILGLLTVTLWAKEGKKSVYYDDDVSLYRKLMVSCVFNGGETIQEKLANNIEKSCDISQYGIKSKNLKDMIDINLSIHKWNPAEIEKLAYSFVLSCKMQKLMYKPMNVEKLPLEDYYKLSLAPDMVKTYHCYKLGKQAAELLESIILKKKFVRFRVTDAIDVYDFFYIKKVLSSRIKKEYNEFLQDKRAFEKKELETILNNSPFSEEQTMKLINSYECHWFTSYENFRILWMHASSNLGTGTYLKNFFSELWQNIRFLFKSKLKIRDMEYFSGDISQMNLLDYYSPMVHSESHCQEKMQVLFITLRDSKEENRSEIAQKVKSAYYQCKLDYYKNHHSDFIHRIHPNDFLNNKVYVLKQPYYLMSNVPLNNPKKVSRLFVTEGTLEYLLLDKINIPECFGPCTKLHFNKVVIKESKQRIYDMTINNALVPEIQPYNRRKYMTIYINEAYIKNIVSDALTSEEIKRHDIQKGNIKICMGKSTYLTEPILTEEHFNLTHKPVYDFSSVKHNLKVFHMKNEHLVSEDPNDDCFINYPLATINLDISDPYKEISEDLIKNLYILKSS
# [2] = target: T1, RhopH2-HA (P. falciparum); experiment: co-IP; RhopH2-HA immunoprecipitated with anti-HA 3F10 from very early rings (directly after invasion), lysed in 20 mM HEPES, 150 mM NaCl, 2% DDM, pH 7.2; eluted with 0.5% SDS at 95 °C; immunoblot for RhopH3 and Clag3
substance,measurement,setting,value
Clag3,binding,[1],binds
same,binding,[2],binds

# No constants are given. Whether binding was seen depends on the method and setting. In cells and extracts the contact can be indirect. Binding can be weak; no strength is given. Where a sequence is shown, tags or fusion partners need not be part of it.
